B1: Ede1 (protein, UniProt P34216 1-1381)
chain: MASITFRTPLSSQEQAFYNQKFHQLDTEDLGVVTGEAVRPLFASSGLPGQLLSQVWATVDIDNKGFLNLNEFSAALRMIAQLQNAPNQPISAALYESTPTQLASFSINQNPAPMQSGSATGNTNNTDIPALSSNDIAKFSQLFDRTAKGAQTVAGDKAKDIFLKARLPNQTLGEIWALCDRDASGVLDKSEFIMAMYLIQLCMSHHPSMNTPPAVLPTQLWDSIRLEPVVVNQPNRTTPLSANSTGVSSLTRHSTISRLSTGAFSNAASDWSLSFEKKQQFDAIFDSLDKQHAGSLSSAVLVPFFLSSRLNQETLATIWDLADIHNNAEFTKLEFAIAMFLIQKKNAGVELPDVIPNELLQSPALGLYPPNPLPQQQSAPQIAIPSRASKPSLQDMPHQVSAPAVNTQPTVPQVLPQNSNNGSLNDLLALNPSFSSPSPTKAQTVVQNNTNNSFSYDNNNGQATLQQQQPQQPPPLTHSSSGLKKFTPTSNFGQSIIKEEPEEQEQLRESSDTFSAQPPPVPKHASSPVKRTASTTLPQVPNFSVFSMPAGAATSAATGAAVGAAVGAAALGASAFSRSSNNAFKNQDLFADGEASAQLSNATTEMANLSNQVNSLSKQASITNDKKSRATQELKRVTEMKNSIQIKLNNLRSTHDQNVKQTEQLEAQVLQVNKENETLAQQLAVSEANYHAAESKLNELTTDLQESQTKNAELKEQITNLNSMTASLQSQLNEKQQQVKQERSMVDVNSKQLELNQVTVANLQKEIDGLGEKISVYLTKQKELNDYQKTVEEQHAQLQAKYQDLSNKDTDLTDREKQLEERNRQIEEQENLYHQHVSKLQEMFDDLSQRKASFEKADQELKERNIEYANNVRELSERQMNLAMGQLPEDAKDIIAKSASNTDTTTKEATSRGNVHEDTVSKFVETTVENSNLNVNRVKDDEEKTERTESDVFDRDVPTLGSQSDSENANTNNGTQSGNETANPNLTETLSDRFDGDLNEYGIPRSQSLTSSVANNAPQSVRDDVELPETLEERDTINNTANRDNTGNLSHIPGEWEATPATASTDVLSNETTEVIEDGSTTKRANSNEDGESVSSIQESPKISAQPKAKTINEEFPPIQELHIDESDSSSSDDDEFEDTREIPSATVKTLQTPYNAQPTSSLEIHTEQVIKYPAPGTSPSHNEGNSKKASTNSILPVKDEFDDEFAGLEQAAVEEDNGADSESEFENVANAGSMEQFETIDHKDLDDELQMNAFTGTLTSSSNPTIPKPQVQQQSTSDPAQVSNDEWDEIFAGFGNSKAEPTKVATPSIPQQPIPLKNDPIVDASLSKGPIVNRGVATTPKSLAVEELSGMGFTEEEAHNALEKCNWDLEAATNFLLDSA
B2: Atg19 (receptor, UniProt P35193 1-415)
chain: MNNSKTNQQMNTSMGYPLTVYDECNKFQLIVPTLDANIMLWCIGQLSLLNDSNGCKHLFWQPNDKSNVRILLNNYDYGHLFKYLQCQRKCSVYIGEGTLKKYNLTISTSFDNFLDLTPSEEKESLCREDAHEDPVSPKAGSEEEISPNSTSNVVVSRECLDNFMKQLLKLEESLNKLELEQKVTNKEPNHRISGTIDIPEDRSELVNFFTELKTVKQLEDVFQRYHDYERLSQECDSKTEIASDHSKKETKIEVEPPNERSLQITMNQRDNSLYFQLFNNTNSVLAGNCKLKFTDAGDKPTTQIIDMGPHEIGIKEYKEYRYFPYALDLEAGSTIEIENQYGEVIFLGKYGSSPMINLRPPSRLSAESLQASQEPFYSFQIDTLPELDDSSIISTSISLSYDGDDNEKALTWEEL
B3: Atg3 (enzyme, UniProt P40344 1-310)
chain: MIRSTLSSWREYLTPITHKSTFLTTGQITPEEFVQAGDYLCHMFPTWKWNEESSDISYRDFLPKNKQFLIIRKVPCDKRAEQCVEVEGPDVIMKGFAEDGDEDDVLEYIGSETEHVQSTPAGGTKDSSIDDIDELIQDMEIKEEDENDDTEEFNAKGGLAKDMAQERYYDLYIAYSTSYRVPKMYIVGFNSNGSPLSPEQMFEDISADYRTKTATIEKLPFYKNSVLSVSIHPCKHANVMKILLDKVRVVRQRRRKELQEEQELDGVGDWEDLQDDIDDSLRVDQYLIVFLKFITSVTPSIQHDYTMEGW
B4: Atg23 (protein, UniProt Q06671 1-453)
chain: MELNQVLEKKEQILQYLGTLVGLHEKALSDVNSASQVTSIRKDITICLNDLCRINDLLVSHDGLLKREIGSLLRDKQELLELNEREQLLWKERKSWHIKQETDAAPADYVIDKDAIITISSHHRTSLNKYIESVGAENTILSNTDDSDAMIEEVQNAESSADQMIRNYKLLQLSHKQAKSEIIRLETLLRDFKKDNKFIEEELKRQSGRIRSEMGNIDFHLSKIEESKHQLMKRIGFESPLTQEKSLSEKIFNLRLSSADEDYNERQTINMKNFVHMKDLIELKIEDLQEQLMRNKNESSTVLTQRELWLDCQKKVGDLESKLITKLRSSSNSKIPPNEMSEMINSTIQYLNNLLDSSDEKLTTTLISNERDVLSKACEELHSESTTAQDGSSALPSKPIDIHKSHKGSNASSNLKQPSTPSFLVASKSPPKIGISESVVNANKNDAISKKVE
B5: Atg27 (protein, UniProt P46989 20-271)
chain: LSCEKHDVLKKYQVGKFSSLTSTERDTPPSTTIEKWWINVCEEHNVEPPEECKKNDMLCGLTDVILPGKDAITTQIIDFDKNIGFNVEETESALTLTLKGATWGANSFDAKLEFQCNDNMKQDELTSHTWADKSIQLTLKGPSGCLKSKDDDKKNGDGDNGKDGDSEGKKPAKKAGGTSWFTWLFLYALLFTLIYLMVVSFLNTRGGSFQDFRAEFIQRSTQFLTSLPEFCKEVVSRILGRSTAQRGGYSAV
B6: Atg21 (protein, UniProt Q02887 1-496)
chain: MKVLQFNQDATCCVVAASSHQISIFNCDPFGKCFEIDTKNSKKKTSNNNGSASNSESRNNEESILITNGSRDRTDAEEEEDNEDNALVTGNILKEGEFVIEMLFSTSLIAIADRGQGLNKGKKLKIVNTKRKCTICEIVFPHEIVDVVMNRKRMCVLLESDQIFIYDISCMKPLETIDLWEDHYKRSQANSFSNASNTGTLEGDSANLNRVATNLLANATQKSVNGSNPSVRTRRNSLRSKIRPRMVLSNDDRSILCFTAYSSPKKNKPNSEALYDVVIYDTLNVTPVNYLNSVHKGNVACLAVSHDGKLLATASDKGTIIRVFHTGVDSDYMSSRSLFKEFRRGTRLCNLYQLAFDKSMTMIGCVGDTDTIHLFKLDDASNSLPGDNSSNGHWNEEEYILASNSNPSMGTPKEIPLSKPRIANYFSKKIKSSIPNQNLSRNFAYITVNESNRSCLGFPDEFPNQVYIASDDGTFSIYSIPSKPGECVLTKNNKFT

Chains of the proteins cited; added tags and fusions are not shown.
UniProt P53855: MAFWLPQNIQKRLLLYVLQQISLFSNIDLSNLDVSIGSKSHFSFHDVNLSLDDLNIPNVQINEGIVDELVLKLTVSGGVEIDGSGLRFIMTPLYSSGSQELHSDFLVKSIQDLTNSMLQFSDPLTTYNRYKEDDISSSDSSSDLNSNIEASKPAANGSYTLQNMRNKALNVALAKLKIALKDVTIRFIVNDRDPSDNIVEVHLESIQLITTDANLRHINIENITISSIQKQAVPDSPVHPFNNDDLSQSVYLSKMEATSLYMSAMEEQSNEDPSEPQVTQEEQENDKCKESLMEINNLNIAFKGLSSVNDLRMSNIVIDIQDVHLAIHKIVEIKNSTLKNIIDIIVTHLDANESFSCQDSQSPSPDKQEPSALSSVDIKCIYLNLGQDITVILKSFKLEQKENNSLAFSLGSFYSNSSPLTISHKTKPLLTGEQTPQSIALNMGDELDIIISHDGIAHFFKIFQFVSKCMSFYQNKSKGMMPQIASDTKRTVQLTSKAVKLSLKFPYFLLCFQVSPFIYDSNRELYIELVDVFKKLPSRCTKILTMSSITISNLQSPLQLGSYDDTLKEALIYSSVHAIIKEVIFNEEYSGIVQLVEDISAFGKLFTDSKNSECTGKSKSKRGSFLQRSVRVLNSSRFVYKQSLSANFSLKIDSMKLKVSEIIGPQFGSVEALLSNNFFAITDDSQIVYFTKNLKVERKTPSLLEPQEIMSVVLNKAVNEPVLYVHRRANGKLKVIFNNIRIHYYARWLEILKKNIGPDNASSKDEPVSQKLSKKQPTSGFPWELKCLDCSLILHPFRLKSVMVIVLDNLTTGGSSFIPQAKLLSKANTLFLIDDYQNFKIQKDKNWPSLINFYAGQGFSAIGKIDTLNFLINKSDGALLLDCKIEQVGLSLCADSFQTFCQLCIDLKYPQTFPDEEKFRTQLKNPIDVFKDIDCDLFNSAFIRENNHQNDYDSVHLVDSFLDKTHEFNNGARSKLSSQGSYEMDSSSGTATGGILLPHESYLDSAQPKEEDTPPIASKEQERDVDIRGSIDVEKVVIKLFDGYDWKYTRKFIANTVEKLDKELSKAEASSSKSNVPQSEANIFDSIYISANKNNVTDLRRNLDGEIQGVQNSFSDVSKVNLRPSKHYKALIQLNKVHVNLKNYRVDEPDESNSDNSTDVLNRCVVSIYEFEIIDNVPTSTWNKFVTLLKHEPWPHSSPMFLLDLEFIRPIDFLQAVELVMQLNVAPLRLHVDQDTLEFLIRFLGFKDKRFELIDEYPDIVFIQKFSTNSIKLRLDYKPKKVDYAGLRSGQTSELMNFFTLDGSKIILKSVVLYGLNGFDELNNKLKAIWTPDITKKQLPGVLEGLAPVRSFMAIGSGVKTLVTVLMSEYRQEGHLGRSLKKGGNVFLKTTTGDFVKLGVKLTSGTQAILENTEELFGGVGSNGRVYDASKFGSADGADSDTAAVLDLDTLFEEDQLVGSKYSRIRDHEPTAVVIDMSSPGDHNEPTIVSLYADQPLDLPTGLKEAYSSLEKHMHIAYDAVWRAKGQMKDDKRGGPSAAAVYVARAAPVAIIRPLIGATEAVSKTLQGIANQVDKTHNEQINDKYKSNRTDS
UniProt P38270: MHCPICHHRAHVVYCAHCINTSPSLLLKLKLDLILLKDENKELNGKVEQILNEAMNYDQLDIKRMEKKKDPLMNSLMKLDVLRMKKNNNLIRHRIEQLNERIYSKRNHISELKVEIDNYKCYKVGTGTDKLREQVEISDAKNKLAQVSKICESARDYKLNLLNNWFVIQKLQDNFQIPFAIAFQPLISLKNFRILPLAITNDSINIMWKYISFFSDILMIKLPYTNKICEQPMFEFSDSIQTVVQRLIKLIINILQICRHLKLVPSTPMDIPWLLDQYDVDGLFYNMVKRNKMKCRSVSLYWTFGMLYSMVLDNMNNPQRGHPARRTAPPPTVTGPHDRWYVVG

No constants are given. Whether binding was seen depends on the method and setting. In cells and extracts the contact can be indirect. Here binding means that the protein was enriched with, or labelled near, the bait; the list need not be complete. For part of these data: A no says only that the protein was not detected with the bait. Tags and fused reporters may be left off the sequences shown.

The first test concerns the target T1, FLAG-APEX2-NES-Atg8 (strain YFMLY141) (S. cerevisiae) (UniProt P38182).
T1 sequence: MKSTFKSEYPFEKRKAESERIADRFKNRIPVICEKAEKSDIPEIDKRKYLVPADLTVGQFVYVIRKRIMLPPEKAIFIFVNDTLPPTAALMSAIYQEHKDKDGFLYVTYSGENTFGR
The test is described as follows: proximity labelling; APEX2 fused to the bait at endogenous level in YSBN5 cells; biotin-free SMD (growing) or 1 h nitrogen starvation in SD-N; cells snap frozen in LN2, thawed on ice, BP and H2O2 for 1 min at RT; streptavidin agarose, on-bead trypsin digestion, DIA LC-MS/MS; control without H2O2; hits at p < 0.05.
Take Act1 (from UniProt P60010 1-375): the binding entry is “no binding”.

B1: the binding entry is reported as “binds”.

Regarding B2, the binding result is reported as “binds”.

As for B3, the binding result is given as “binds”.

A further test addresses T2, Atg9-FLAG-APEX2-NES (strain YFMLY170) (S. cerevisiae) (UniProt Q12142).
T2 sequence: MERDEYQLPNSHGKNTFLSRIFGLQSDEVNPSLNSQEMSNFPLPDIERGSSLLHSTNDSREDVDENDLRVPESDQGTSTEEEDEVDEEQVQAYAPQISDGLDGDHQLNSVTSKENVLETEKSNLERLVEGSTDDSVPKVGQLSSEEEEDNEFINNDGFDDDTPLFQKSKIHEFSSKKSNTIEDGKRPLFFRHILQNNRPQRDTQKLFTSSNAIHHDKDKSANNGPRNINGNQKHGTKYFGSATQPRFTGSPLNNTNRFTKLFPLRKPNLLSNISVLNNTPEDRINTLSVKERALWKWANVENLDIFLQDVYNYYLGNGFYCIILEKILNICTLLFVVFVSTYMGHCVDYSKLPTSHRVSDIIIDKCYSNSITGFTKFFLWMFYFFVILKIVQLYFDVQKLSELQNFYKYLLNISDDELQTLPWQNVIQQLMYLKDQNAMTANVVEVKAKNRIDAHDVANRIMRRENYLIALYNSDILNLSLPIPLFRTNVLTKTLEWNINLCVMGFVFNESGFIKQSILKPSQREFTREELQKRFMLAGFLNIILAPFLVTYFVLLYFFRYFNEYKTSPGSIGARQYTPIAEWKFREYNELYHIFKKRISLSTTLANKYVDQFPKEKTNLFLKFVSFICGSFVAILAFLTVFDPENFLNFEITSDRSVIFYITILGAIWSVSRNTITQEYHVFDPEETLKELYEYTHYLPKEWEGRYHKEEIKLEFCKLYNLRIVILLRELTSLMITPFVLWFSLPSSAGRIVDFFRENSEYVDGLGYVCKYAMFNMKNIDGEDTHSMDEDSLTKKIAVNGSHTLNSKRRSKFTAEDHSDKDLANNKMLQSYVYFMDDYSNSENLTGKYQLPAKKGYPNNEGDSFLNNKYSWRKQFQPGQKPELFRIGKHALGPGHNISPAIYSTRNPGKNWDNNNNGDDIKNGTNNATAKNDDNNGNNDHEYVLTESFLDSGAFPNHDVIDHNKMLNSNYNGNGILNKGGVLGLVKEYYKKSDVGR
The test is described as above.
On to Atg2 (from UniProt P53855 1-1592), for which the binding entry is listed as “binds”.

As to Atg14 (from UniProt P38270 1-344), the binding result is “binds”.

B4: the binding entry was “binds”.

In the case of B5, the binding result is “binds”.

Take B6: the binding result is “binds”.
